Reference: US20240350653A1 (JOINT STOCK COMPANY GENERIUM, published 2024)
No constants are given. Whether binding was seen depends on the method and setting. Some binding calls cover weakened binding; strength is not graded here.

The chains behind the UniProt entries cited, without tags or fusion partners. Where a name states a change or a piece, a line headed by the entry shows the natural chain unless it says otherwise. A line that says so, or that is headed by a name, gives the form on record, which may keep a tag or linker.
Human Insulin Receptor protein fragment (Abcam cat #ab200510) (P06213, form named): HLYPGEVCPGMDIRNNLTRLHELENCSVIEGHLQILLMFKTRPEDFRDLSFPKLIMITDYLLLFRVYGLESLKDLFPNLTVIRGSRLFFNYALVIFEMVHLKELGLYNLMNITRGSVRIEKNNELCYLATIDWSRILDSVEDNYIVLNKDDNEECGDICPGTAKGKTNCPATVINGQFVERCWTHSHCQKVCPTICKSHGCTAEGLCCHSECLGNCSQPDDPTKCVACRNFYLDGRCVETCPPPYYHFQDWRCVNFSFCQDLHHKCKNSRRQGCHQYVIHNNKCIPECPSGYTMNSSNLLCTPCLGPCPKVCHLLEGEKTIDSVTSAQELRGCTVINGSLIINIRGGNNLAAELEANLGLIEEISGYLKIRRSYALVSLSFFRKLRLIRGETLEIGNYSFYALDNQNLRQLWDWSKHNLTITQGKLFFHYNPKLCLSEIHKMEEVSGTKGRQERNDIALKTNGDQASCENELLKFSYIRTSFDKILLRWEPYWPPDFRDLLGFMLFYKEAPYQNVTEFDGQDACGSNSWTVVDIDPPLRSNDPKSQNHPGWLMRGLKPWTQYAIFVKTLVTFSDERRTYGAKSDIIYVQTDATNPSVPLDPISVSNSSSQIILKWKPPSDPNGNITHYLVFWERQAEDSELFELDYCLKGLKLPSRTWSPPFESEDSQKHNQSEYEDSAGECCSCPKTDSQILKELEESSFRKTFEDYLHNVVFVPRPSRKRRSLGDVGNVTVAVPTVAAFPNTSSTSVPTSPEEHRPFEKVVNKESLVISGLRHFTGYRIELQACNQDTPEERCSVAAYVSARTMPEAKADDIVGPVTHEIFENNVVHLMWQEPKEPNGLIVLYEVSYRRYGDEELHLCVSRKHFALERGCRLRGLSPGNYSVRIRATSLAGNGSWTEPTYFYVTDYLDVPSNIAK

B1: HIR-FAB-IDS (SEQ ID NO: 9 and SEQ ID NO: 13) (Fab)
light: EIVLTQSPDFQSVTPKEKVTITCRASQDIGGNLYWYQQKPDQSPKLLIKATSSLDSGVPSRFSGSGSGTDFTLTINSLEAEDAAAYYCLQYSSSPWTFGPGTKVDIKRTVAAPSVFIFPPSDEQLKSGTASVVCLLNNFYPREAKVQWKVDNALQSGNSQESVTEQDSKDSTYSLSSTLTLSKADYEKHKVYACEVTHQGLSSPVTKSFNRGEC
heavy: QVQLVESGGGVVQPGRSLRLSCAASGFTFSNYDIHWVRQAPGKGLEWVAWIYPGDGSTKYNEKFKGRFTISRDNSKNTLYLQMNGLRAEDTAVYYCAREWAYWGQGTLVTVSSASTKGPSVFPLAPSSKSTSGGTAALGCLVKDYFPEPVTVSWNSGALTSGVHTFPAVLQSSGLYSLSSVVTVPSSSLGTQTYICNVNHKPSNTKVDKRVEPKSCDKTHLSSSETQANSTTDALNVLLIIVDDLRPSLGCYGDKLVRSPNIDQLASHSLLFQNAFAQQAVCAPSRVSFLTGRRPDTTRLYDFNSYWRVHAGNFSTIPQYFKENGYVTMSVGKVFHPGISSNHTDDSPYSWSFPPYHPSSEKYENTKTCRGPDGELHANLLCPVDVLDVPEGTLPDKQSTEQAIQLLEKMKTSASPFFLAVGYHKPHIPFRYPKEFQKLYPLENITLAPDPEVPDGLPPVAYNPWMDIRQREDVQALNISVPYGPIPVDFQRKIRQSYFASVSYLDTQVGRLLSALDDLQLANSTIIAFTSDHGWALGEHGEWAKYSNFDVATHVPLIFYVPGRTASLPEAGEKLFPYLDPFDSASQLMEPGRQSMDLVELVSLFPTLAGLAGLQVPPRCPVPSFHVELCREGKNLLKHFRFRDLEEDPYLPGNPRELIAYSQYPRPSDIPQWNSDKPSLKDIKIMGYSIRTIDYRYTVWVGFNPDEFLANFSDIHAGELYFVDSDPLQDHNMYNDSQGGDLFQLLMP
notes: Variant of the Fab-iduronate-2-sulfatase fusion
B2: HIR-FAB-IDS (SEQ ID NO: 11 and SEQ ID NO: 15) (Fab)
light: EIVLTQSPATLSLSPGERATLSCRASQDIGGNLYWYQQKPGQAPRLLIYATSSLDSGIPARFSGSGSGTDFTLTISSLEPEDFAVYYCLQYSSSPWTFGQGTRLEIKRTVAAPSVFIFPPSDEQLKSGTASVVCLLNNFYPREAKVQWKVDNALQSGNSQESVTEQDSKDSTYSLSSTLTLSKADYEKHKVYACEVTHQGLSSPVTKSFNRGEC
heavy: EVQLVESGGGLVQPGRSLRLSCAASGFTFNNYDIHWVRQAPGKGLEWVSWIYPGDGSTKYNEKFKGRFTISRDNAKKSLYLQMNSLRAEDTALYYCAKEWAYWGQGTTVTVSSASTKGPSVFPLAPGSSKSTSGTAALGCLVKDYFPEPVTVSWNSGALTSGVHTFPAVLQSSGLYSLSSVVTVPSSSLGTQTYICNVNHKPSNTKVDKKVEPKSCDKTHLSSSETQANSTTDALNVLLIIVDDLRPSLGCYGDKLVRSPNIDQLASHSLLFQNAFAQQAVCAPSRVSFLTGRRPDTTRLYDFNSYWRVHAGNFSTIPQYFKENGYVTMSVGKVFHPGISSNHTDDSPYSWSFPPYHPSSEKYENTKTCRGPDGELHANLLCPVDVLDVPEGTLPDKQSTEQAIQLLEKMKTSASPFFLAVGYHKPHIPFRYPKEFQKLYPLENITLAPDPEVPDGLPPVAYNPWMDIRQREDVQALNISVPYGPIPVDFQRKIRQSYFASVSYLDTQVGRLLSALDDLQLANSTIIAFTSDHGWALGEHGEWAKYSNFDVATHVPLIFYVPGRTASLPEAGEKLFPYLDPFDSASQLMEPGRQSMDLVELVSLFPTLAGLAGLQVPPRCPVPSFHVELCREGKNLLKHFRFRDLEEDPYLPGNPRELIAYSQYPRPSDIPQWNSDKPSLKDIKIMGYSIRTIDYRYTVWVGFNPDEFLANFSDIHAGELYFVDSDPLQDHNMYNDSQGGDLFQLLMP
notes: as for B1

Biological target: Human Insulin Receptor protein fragment (Abcam cat #ab200510) (human) (UniProt P06213)
Test: ELISA on human insulin receptor fragment

| Binder | binding |
| --- | --- |
| B1 | binds |
| B2 | binds |
